Test results from PMC7409167.
No constants are given. Whether binding was seen depends on the method and setting. In cells and extracts the contact can be indirect. Binding can be weak; no strength is given.

By UniProt entry, the sequences of proteins in these tests, tags left out. Where a name states a change or a piece, a line headed by the entry shows the natural chain unless it says otherwise. Residues count along the entry.
UniProt Q92769: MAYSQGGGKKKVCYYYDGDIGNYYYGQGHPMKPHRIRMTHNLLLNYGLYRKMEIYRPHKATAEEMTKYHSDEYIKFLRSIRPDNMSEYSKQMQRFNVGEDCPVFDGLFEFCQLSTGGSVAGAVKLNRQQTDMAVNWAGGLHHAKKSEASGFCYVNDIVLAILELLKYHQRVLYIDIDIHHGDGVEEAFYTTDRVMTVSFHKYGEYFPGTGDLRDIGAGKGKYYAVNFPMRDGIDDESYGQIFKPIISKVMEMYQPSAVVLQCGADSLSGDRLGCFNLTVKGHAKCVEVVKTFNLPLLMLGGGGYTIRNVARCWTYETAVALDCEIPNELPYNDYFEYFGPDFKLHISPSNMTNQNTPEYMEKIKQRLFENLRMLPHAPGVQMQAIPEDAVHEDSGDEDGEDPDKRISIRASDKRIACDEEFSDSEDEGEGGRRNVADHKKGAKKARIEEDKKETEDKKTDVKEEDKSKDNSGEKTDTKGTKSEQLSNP
UniProt P02545, residues 1-646: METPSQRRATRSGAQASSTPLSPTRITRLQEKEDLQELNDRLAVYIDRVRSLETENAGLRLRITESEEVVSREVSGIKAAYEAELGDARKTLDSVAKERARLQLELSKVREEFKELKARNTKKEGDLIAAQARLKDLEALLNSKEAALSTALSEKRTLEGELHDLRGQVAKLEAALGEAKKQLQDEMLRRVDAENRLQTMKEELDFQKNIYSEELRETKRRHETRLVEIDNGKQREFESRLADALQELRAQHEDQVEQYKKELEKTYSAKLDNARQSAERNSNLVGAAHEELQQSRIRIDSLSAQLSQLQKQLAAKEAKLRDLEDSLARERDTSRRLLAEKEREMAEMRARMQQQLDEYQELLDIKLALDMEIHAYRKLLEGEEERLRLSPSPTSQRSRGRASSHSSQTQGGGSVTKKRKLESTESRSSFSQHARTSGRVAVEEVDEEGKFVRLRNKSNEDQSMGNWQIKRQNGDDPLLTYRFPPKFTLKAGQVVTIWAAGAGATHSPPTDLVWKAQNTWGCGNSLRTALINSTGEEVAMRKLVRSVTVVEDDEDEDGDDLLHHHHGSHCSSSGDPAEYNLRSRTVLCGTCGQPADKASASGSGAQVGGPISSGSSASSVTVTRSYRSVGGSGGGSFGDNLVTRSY

Key:
Assay in all cases: co-IP; HEK293 cells overexpressing GFP-lamin A and FLAG-HDAC2 (wild type or mutant); lysis in 50 mM Tris-HCl pH 8, 150 mM NaCl, 1% NP-40, 0.05% SDS; 700 ug lysate precipitated with anti-FLAG antibody overnight at 4 °C, protein A/G; blot for GFP
FLAG-HDAC2, wild type = FLAG-HDAC2, wild type (UniProt Q92769)
FLAG-HDAC2 K75R = FLAG-HDAC2 K75R (UniProt Q92769)
FLAG-HDAC2 K75Q = FLAG-HDAC2 K75Q (UniProt Q92769)

Measured: binding

GFP-lamin A (from UniProt P02545 1-646)
binds: all assays above
